Source: the supplement of paper PMC11150407
In all, about 3,000 compounds went through this assay and about 45 (2%) showed an effect of 50% or more. This is one part of the list.

Each molecule was assayed on MOLM1 and UCSD/AML1 (averaged) (assay: cell viability relative to DMSO control (POC); higher = less growth inhibition). Settings: 1 µM; 72 h.
Protocol: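 Primary viability screen in the 3q26 EVI1-high AML cell lines MOLM1 and UCSD/AML1, compounds at 1 uM for 72 h. ATP CellTiter-Glo read-out given as percent viable over DMSO control (POC), averaged over duplicates. This mapping covers the TimTec NDL-3000 natural derivative library, whose compounds are identified by TimTec catalogue codes (ST...).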

Question: COC(=O)C1=C(N)Oc2c(c(=O)oc3ccccc23)C1c1ccc(C(F)(F)F)cc1 (centres undefined) was tested. Which cell viability did it give?
Answer: 96.5%

Question: How did the cell viability turn out when COc1cc(-c2cc(=NCC3CCCO3)c3ccccc3o2)ccc1O.[O-][Cl+3]([O-])([O-])O (centres undefined) was run?
Answer: 77.3%

Question: Which cell viability does the source give for CCCCNCC(O)c1ccc(O)cc1 (centres undefined) here?
Answer: 104%

Question: Which cell viability does the source give for CC(=O)OC1CCC2(C)C3CCC4(C)C(CC[C@]4(OC(C)=O)C(C)OC(C)=O)C3CC[C@H]2C1 (some centres undefined) here?
Answer: 109%

Question: Which cell viability does the source give for CN1C(=O)C(=Cc2ccc3c(c2)OCO3)C(=O)N(C)C1=O here?
Answer: 111%

Question: With C=CCN1C(=O)NC(=O)C(Cc2ccc(OC)c(OC)c2)C1=O (centres undefined) as the molecule, how does the cell viability read?
Answer: 99.8%

Question: With CC(C)[C@@H]1CC[C@@H](C)C[C@H]1OC(=O)[C@@H]1CN1[C@H](C)c1ccccc1 (some centres undefined) as the molecule, how does the cell viability read?
Answer: 80.3%

Question: CCOC(=O)c1c(C)n(C2CCCCC2)c2cc(Br)c(O)cc12 was tested. Which cell viability did it give?
Answer: 103%

Question: Which cell viability does the source give for COC(=O)C1=C(N)Oc2c(c(=O)oc3ccccc23)C1c1cccc(Br)c1 (centres undefined) here?
Answer: 98.5%

Question: Cc1ccc(C2C(C#N)=C(N)Oc3c2c(=O)oc2ccccc32)o1 (centres undefined) was tested. Which cell viability did it give?
Answer: 101%

Question: How did the cell viability turn out when C/C=C1\C[N+]2(C)CCC34C(=C(C=O)C1CC32)Nc1ccccc14 (centres undefined) was run?
Answer: 98%

Question: With O=c1[nH]c(O)c(N=Nc2cc([N+](=O)[O-])ccc2O)c(=O)[nH]1 as the molecule, how does the cell viability read?
Answer: 89.2%

Question: CC(O)CN1CCCCC1c1cccnc1.O.O.[Cl][Cu][Cl] (centres undefined) was tested. Which cell viability did it give?
Answer: 109%

Question: Which cell viability does the source give for CC(=O)c1ccc2c(c1)OCO2 here?
Answer: 98.9%

Question: How did the cell viability turn out when COc1cc2c(cc1OC)C13CCN4C(=O)C(=O)C(CC41)C1C(OCC(=O)O)CC(=O)N2C13 (centres undefined) was run?
Answer: 90.7%

Question: Which cell viability does the source give for OCC1N2CCC(CC2)C1(O)O (centres undefined) here?
Answer: 32.3%

Question: How did the cell viability turn out when O=C(Cn1c(C(=O)c2ccccc2)nc2ccccc21)NCCc1ccccc1 was run?
Answer: 99.4%

Question: COCCOC(=O)c1c(C)n(Cc2ccccc2)c2c1cc(O)c1ccccc12 was tested. Which cell viability did it give?
Answer: 106%

Question: Which cell viability does the source give for CCCCCCCCCCn1c(C)c(C(=O)OCC)c2cc(O)ccc21 here?
Answer: 107%

Question: With O=c1c(/C=C2\C=Nc3ccccc32)c(O)n(-c2ccccc2)c(=O)n1-c1ccccc1 as the molecule, how does the cell viability read?
Answer: 87.3%

Question: CN(C)Cc1c[nH]c2cc([N+](=O)[O-])ccc12 was tested. Which cell viability did it give?
Answer: 103%

Question: How did the cell viability turn out when COC(=O)c1c(C)n(CC2CCCO2)c2ccc(O)cc12 (centres undefined) was run?
Answer: 97%

Question: Which cell viability does the source give for NCCc1cccc(O)c1 here?
Answer: 102%

Question: Which cell viability does the source give for O=c1cccc2n1CC1CC2CN(c2nc(-c3ccccc3)cs2)C1 (centres undefined) here?
Answer: 98.5%

Question: How did the cell viability turn out when O=c1[nH]c(O)c(N=Nc2ccccc2[N+](=O)[O-])c(=O)[nH]1 was run?
Answer: 108%

Question: Which cell viability does the source give for CCOC(=O)C1=C(N)Oc2c(c(=O)oc3ccccc23)C1c1cccnc1 (centres undefined) here?
Answer: 90.1%

Question: O=C(CBr)c1cc2ccccc2oc1=O was tested. Which cell viability did it give?
Answer: 100%

Question: COC(=O)C1=C(N)Oc2c(c(=O)oc3ccccc23)C1c1ccccc1Br (centres undefined) was tested. Which cell viability did it give?
Answer: 99.7%

Question: Which cell viability does the source give for C/C=C1\C[N+]2(C)CCC34c5cccc(O)c5NC3C(C=O)[C@H]1CC42 (some centres undefined) here?
Answer: 99.9%

Question: Which cell viability does the source give for CNCCc1c[nH]c2ccc(CS(=O)(=O)O)cc12 here?
Answer: 105%

Question: With NCCc1c[nH]c2ccc(Br)cc12 as the molecule, how does the cell viability read?
Answer: 93.3%

Question: With Oc1ccc(CC2CC3CCN2CC3)cc1O (centres undefined) as the molecule, how does the cell viability read?
Answer: 102%

Question: How did the cell viability turn out when CC(C)CC(=O)OCC1CCCN2CCCCC12 (centres undefined) was run?
Answer: 103%

Question: Which cell viability does the source give for Cc1ccc2c(CN3CCNCC3)cc(=O)oc2c1 here?
Answer: 87.9%

Question: How did the cell viability turn out when C/C=C1\C[N+]2(C)CCC34c5ccccc5NC3C(/C=N/Nc3ccccc3)C1CC42 (centres undefined) was run?
Answer: 102%

Question: With COC(=O)C(N)CCCN=C(N)N[N+](=O)[O-] (centres undefined) as the molecule, how does the cell viability read?
Answer: 102%

Question: For Cc1c(N=Nc2c(O)[nH]c(=O)[nH]c2=O)cccc1[N+](=O)[O-], which cell viability is on record?
Answer: 105%

Question: With COc1cc(C2C(C#N)=C(N)Oc3c2c(=O)oc2ccccc32)cc(OC)c1OC (centres undefined) as the molecule, how does the cell viability read?
Answer: 100%

Question: Which cell viability does the source give for NCCc1cn2ccccc2n1 here?
Answer: 103%

Question: How did the cell viability turn out when C[N+]1(C)CCCC1c1cc(Br)cnc1N (centres undefined) was run?
Answer: 101%

Question: Which cell viability does the source give for Cc1cccc(N2C(=O)NC(=O)/C(=C\c3cn(C)c4ccccc34)C2=O)c1 here?
Answer: 96.3%

Question: How did the cell viability turn out when CCOC(=O)C1=C(N)Oc2c(c(=O)oc3ccccc23)C1c1ccccc1Br (centres undefined) was run?
Answer: 105%

Question: Which cell viability does the source give for CC12CCC3C(CCC4C/C(=N/O)CCC43C)C1CCC2O (centres undefined) here?
Answer: 92.4%

Question: For COc1cccc(N2C(=O)NC(=O)/C(=C\c3cc(OC)c(O)c(OC)c3)C2=O)c1, which cell viability is on record?
Answer: 92.6%

Question: How did the cell viability turn out when CC(C)(C)C(=O)OCC1CCCN2CCCCC12 (centres undefined) was run?
Answer: 97.6%

Question: C[N+]1(CCOCC2CCC[N+]3(C)CCCCC23)CCCCC1 (centres undefined) was tested. Which cell viability did it give?
Answer: 97.9%

Question: CCn1cc(C(=O)O)c(=O)c2cc3c(cc21)OCO3 was tested. Which cell viability did it give?
Answer: 101%

Question: Which cell viability does the source give for CC(C)CCCn1c(O)c(C(c2ccccn2)c2c(O)n(CCCC(C)C)c(=O)[nH]c2=O)c(=O)[nH]c1=O here?
Answer: 95.1%

Question: COc1cc(C(=O)ON=C2CC3CCC(C2)N3C)cc(OC)c1OC was tested. Which cell viability did it give?
Answer: 91.7%

Question: With COc1cc(OC)c(OC)cc1C=C(C#N)C#N as the molecule, how does the cell viability read?
Answer: 96.2%

Question: O=C(O)C1C2CC(Sc3ccccc3[N+](=O)[O-])C(Cl)C2c2cc(Cl)cc3c2N1CC1CC=CC31 (centres undefined) was tested. Which cell viability did it give?
Answer: 98.9%

Question: With CN1CC(C#N)C2(O)c3ccccc3CCC2C1 (centres undefined) as the molecule, how does the cell viability read?
Answer: 104%

Question: CC(C)C(=O)OCC1CCCN2CCCCC12 (centres undefined) was tested. Which cell viability did it give?
Answer: 105%

Question: With O=C1NC(=O)N(Cc2ccccc2)C(=O)/C1=C/c1cn(Cc2ccccc2)c2ccccc12 as the molecule, how does the cell viability read?
Answer: 95.4%
